The results in this text go back to PMC3320862, “Structural and Functional Analysis of the Symmetrical Type I Restriction Endonuclease R.EcoR124INT” (PLOS One, 2012).

In this experiment the target is T1, M.EcoR124INT methyltransferase (UniProt P10484 1-520; P10485 1-215).
T1 construct: HsdM (modification subunit, M) of the Type I restriction-modification system EcoR124I; SNT: residues 1-215 of the parent specificity subunit HsdS (S) of EcoR124I, holding the N-terminal target recognition domain and the central conserved region; Complex formed beforehand (M and SNT), to which HsdR was added; M2 stoichiometry is printed for Type I MTases in general (M2S); 'two modified SNT …
T1 sequence (looked up) 1: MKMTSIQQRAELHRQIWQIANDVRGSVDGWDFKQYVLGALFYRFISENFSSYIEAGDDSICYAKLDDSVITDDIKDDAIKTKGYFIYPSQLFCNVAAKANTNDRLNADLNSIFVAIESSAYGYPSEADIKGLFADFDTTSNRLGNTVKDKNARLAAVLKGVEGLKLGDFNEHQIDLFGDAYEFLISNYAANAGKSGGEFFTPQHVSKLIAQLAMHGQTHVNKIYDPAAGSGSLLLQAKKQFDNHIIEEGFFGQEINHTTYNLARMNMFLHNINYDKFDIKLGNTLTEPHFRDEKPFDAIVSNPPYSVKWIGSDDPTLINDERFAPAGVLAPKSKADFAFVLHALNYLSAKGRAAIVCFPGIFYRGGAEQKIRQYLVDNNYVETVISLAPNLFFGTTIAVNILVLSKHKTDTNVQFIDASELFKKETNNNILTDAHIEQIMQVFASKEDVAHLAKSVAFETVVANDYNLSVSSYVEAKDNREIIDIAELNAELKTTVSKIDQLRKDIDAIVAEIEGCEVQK
T1 sequence (looked up) 2: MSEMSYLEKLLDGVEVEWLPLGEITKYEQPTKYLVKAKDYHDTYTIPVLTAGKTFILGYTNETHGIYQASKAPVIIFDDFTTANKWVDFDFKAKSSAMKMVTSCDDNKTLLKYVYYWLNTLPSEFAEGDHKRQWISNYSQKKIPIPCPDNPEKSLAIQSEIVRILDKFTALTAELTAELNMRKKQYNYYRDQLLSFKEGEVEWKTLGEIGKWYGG
Nature of the experiment: AUC; sedimentation velocity, HsdR:MTase at 1:1, free protein and with DNA; data not shown; both purified.

Results are given in words; binding and its absence hold for the method and conditions named. Some results given as binding are weak or reduced against the parent protein; the word gives no strength.

B1: HsdR from EcoR124I (enzyme, UniProt P10486 1-1038, looked up)
chain: MTHQTHTIAESNNFIVLDKYIKAEPTGDSYQSESDLERELIQDLRNQGYEFISVKSQSAMLANVREQLQNLNGVVFNDSEWRRFTEQYLDNPSDGILDKTRKIHIDYICDFIFDDERLENIYLIDKKNLMRNKVQIIQQFEQAGSHANRYDVTILVNGLPLVQIELKKRGVAIREAFNQIHRYSKESFNSENSLFKYLQLFVISNGTDTRYFANTTKRDKNSFDFTMNWAKSDNTLIKDLKDFTATCFQKHTLLNVLVNYSVFDSSQTLLVMRPYQIAATERILWKIKSSFTAKNWSKPESGGYIWHTTGSGKTLTSFKAARLATELDFIDKVFFVVDRKDLDYQTMKEYQRFSPDSVNGSENTAGLKRNLDKDDNKIIVTTIQKLNNLMKAESDLPVYNQQVVFIFDECHRSQFGEAQKNLKKKFKRYYQFGFTGTPIFPENALGSETTASVFGRELHSYVITDAIRDEKVLKFKVDYNDVRPQFKSLETETDEKKLSAAENQQAFLHPMRIQEITQYILNNFRQKTHRTFPGSKGFNAMLAVSSVDAAKAYYATFKRLQEEAANKSATYKPLRIATIFSFAANEEQNAIGEISDETFDTSAMDSSAKEFLDAAIREYNSHFKTNFSTDSNGFQNYYRDLAQRVKNQDIDLLIVVGMFLTGFDAPTLNTLFVDKNLRYHGLMQAFSRTNRIYDATKTFGNIVTFRDLERSTIDAITLFGDKNTKNVVLEKSYTEYMEGFTDAATGEAKRGFMTVVSELEQRFPDPTSIESEKEKKDFVKLFGEYLRAENILQNYDEFATLKALQQIDLSDPVAVEKFKAEHYVDDEKFAELQTIRLPADRKIQDYRSAYNDIRDWQRREKEAEKKEKSTTDWDDVVFEVDLLKSQEINLDYILGLIFEHNRQNKGKGEMIEEVKRLIRSSLGNRAKEGLVVDFIQQTNLDDLPDKASIIDAFFTFAQREQQREAEALIKEENLNEDAAKRYIRTSLKREYATENGTELNETLPKLSPLNPQYKTKKQAVFQKIVSFIEKFKGVGGKI
notes: HsdR (restriction / motor subunit) of the Type I restriction-modification system EcoR124I; about 120 kDa as printed; For one SANS sample the same protein was made about 75% deuterated (85% D2O minimal medium); also called R subunit; motor subunit; source: expressed and purified as described previously [24]; deuterated form from BL21 (DE3) with the expression plasmid pBGSR124
In the case of B1, the binding result was “binds”.
